Paper PMC5951673
Results are given in words; binding and its absence hold for the method and conditions named. In cells and extracts the contact can be indirect. Where a sequence is shown, tags or fusion partners need not be part of it.

Target: T1, CLCA2, stably expressed in HEK293 (cross-linking experiment) (human) (UniProt Q9UQC9)
T1 sequence: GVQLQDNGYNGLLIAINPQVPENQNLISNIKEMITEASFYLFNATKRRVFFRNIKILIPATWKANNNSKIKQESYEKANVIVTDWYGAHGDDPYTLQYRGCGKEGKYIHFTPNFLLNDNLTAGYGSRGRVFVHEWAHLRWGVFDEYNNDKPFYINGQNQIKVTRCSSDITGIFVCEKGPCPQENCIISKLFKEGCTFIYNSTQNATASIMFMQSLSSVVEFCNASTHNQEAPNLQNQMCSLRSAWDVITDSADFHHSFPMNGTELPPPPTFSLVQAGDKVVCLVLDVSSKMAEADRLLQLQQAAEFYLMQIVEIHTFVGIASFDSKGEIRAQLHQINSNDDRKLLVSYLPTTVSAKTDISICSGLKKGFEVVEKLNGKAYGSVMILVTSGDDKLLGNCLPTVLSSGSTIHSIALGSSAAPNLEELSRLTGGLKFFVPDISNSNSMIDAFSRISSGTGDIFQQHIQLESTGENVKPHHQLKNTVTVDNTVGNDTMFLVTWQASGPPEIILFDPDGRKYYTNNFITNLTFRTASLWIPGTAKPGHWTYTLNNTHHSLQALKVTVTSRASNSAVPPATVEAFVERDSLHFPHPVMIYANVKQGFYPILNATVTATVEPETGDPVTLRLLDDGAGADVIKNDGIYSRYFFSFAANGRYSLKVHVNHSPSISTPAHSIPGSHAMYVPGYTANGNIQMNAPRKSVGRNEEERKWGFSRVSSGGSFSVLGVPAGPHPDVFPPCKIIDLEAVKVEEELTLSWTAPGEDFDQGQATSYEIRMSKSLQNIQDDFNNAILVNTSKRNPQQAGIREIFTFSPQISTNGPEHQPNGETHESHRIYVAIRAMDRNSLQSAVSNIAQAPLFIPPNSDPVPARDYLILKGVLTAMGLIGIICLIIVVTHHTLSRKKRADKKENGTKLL
Assay: cross-linking + co-IP; HEK293 stably expressing CLCA2 or vector, transfected with TMEM16A, treated 48h later with DSS (25 min, room temperature), with or without 1 micromolar ionomycin 5min before the cross-linker; immunoprecipitation and immunoblot

binding: no binding
B1: TMEM16A-Flag (Anoctamin1), transiently transfected in HEK293 (protein, UniProt Q5XXA6 1-986)
chain: MRVNEKYSTLPAEDRSVHIINICAIEDIGYLPSEGTLLNSLSVDPDAECKYGLYFRDGRRKVDYILVYHHKRPSGNRTLVRRVQHSDTPSGARSVKQDHPLPGKGASLDAGSGEPPMDYHEDDKRFRREEYEGNLLEAGLELERDEDTKIHGVGFVKIHAPWNVLCREAEFLKLKMPTKKMYHINETRGLLKKINSVLQKITDPIQPKVAEHRPQTMKRLSYPFSREKQHLFDLSDKDSFFDSKTRSTIVYEILKRTTCTKAKYSMGITSLLANGVYAAAYPLHDGDYNGENVEFNDRKLLYEEWARYGVFYKYQPIDLVRKYFGEKIGLYFAWLGVYTQMLIPASIVGIIVFLYGCATMDENIPSMEMCDQRHNITMCPLCDKTCSYWKMSSACATARASHLFDNPATVFFSVFMALWAATFMEHWKRKQMRLNYRWDLTGFEEEEEAVKDHPRAEYEARVLEKSLKKESRNKEKRRHIPEESTNKWKQRVKTAMAGVKLTDKVKLTWRDRFPAYLTNLVSIIFMIAVTFAIVLGVIIYRISMAAALAMNSSPSVRSNIRVTVTATAVIINLVVIILLDEVYGCIARWLTKIEVPKTEKSFEERLIFKAFLLKFVNSYTPIFYVAFFKGRFVGRPGDYVYIFRSFRMEECAPGGCLMELCIQLSIIMLGKQLIQNNLFEIGIPKMKKLIRYLKLKQQSPPDHEECVKRKQRYEVDYNLEPFAGLTPEYMEMIIQFGFVTLFVASFPLAPLFALLNNIIEIRLDAKKFVTELRRPVAVRAKDIGIWYNILRGIGKLAVIINAFVISFTSDFIPRLVYLYMYSKNGTMHGFVNHTLSSFNVSDFQNGTAPNDPLDLGYEVQICRYKDYREPPWSENKYDISKDFWAVLAARLAFVIVFQNLVMFMSDFVDWVIPDIPKDISQQIHKEKVLMVELFMREEQDKQQLLETWMEKERQKDEPPCNHHNTKACPDSLGSPAPSHAYHGGVL
